{
  "source": "patent US10444224B2",
  "about": "“Method for RNA detection and quantification” (Cornell University, priority 2011, dated 2019)",
  "test": "Photobleaching curves on glass slides under continuous illumination",
  "type": "physicochemical",
  "conditions": "immobilized on glass slides, 130 W mercury lamp, 45 min",
  "description": "Photobleaching experiments were performed on fluorescein, EGFP and 24-2-DFHBI complexes immobilized on chemically functionalized glass slides (MicroSurfaces). To immobilized fluorescein, fluorescein cadaverine (Sigma-Aldrich) was reacted in 40 mM HEPES pH 8.0 with NHS-activated glass slides for 2 h at 25° C. Slides were then incubated in 100 mM Tris pH 8.0 to quench any unreacted NHS-activated sites. […] To immobilize 24-2-DFHBI, a 3′ amine modified 21-nt DNA oligo (sequence: 5′-GGTTGTAAGTTTTAGGTTGCC-NH2-3′, SEQ ID NO: 45; Integrated DNA Technologies) was reacted with NHS-activated glass slides. Unreacted NHS-activated sites were blocked as above. 24-2 RNA was then in vitro synthesized with a 5′ overhang complimentary to the immobilized DNA oligo. Purified 24-2 RNA was denatured at 65° C. and incubated with the slide at 25° C. for 20 min to allow hybridization to the immobilized oligonucleotide. […] Images were captured every 10 s with a CoolSnap HQ2 CCD camera through a 10× air objective mounted on a Nikon TE2000 microscope and analyzed with the NIS-Elements software. […] Total fluorescence was then plotted against exposure time and normalized to the maximum intensity of each fluorophore.",
  "note": "For at least one compound, name, drawing or mass did not settle the structure.",
  "data": [
    {"molecule": "O=C1OC2(c3ccc(O)cc3Oc3cc(O)ccc32)c2ccccc21", "note": "[fluorescein, reference compound]", "values": [
      {"measurement": "photobleaching during continuous illumination", "value": "photobleached"}
    ]}
  ]
}
